Measured values: paper PMC6235404
These are yes or no findings as the source states them, for the method shown. For part of these data: In cells and extracts the contact can be indirect. Some results given as binding are weak or reduced against the parent protein; the word gives no strength. Values belong to the binder of their own block, whether it stands above or below them.

Legend:
[1] = biological target: T1, endogenous STING (mouse cells) (mouse (endogenous in MEFs and BMDMs)) (UniProt Q3TBT3); experiment: co-IP
T1 sequence: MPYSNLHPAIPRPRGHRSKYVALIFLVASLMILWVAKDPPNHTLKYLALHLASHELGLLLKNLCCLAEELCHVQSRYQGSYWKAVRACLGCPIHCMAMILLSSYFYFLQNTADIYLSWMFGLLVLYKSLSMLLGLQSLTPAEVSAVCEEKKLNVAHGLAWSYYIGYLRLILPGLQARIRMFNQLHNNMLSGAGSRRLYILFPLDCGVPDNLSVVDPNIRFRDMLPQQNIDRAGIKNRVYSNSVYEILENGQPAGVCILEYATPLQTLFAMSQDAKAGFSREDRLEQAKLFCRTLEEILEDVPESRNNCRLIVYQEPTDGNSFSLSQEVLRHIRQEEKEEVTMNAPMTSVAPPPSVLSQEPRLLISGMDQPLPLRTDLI

[2] = biological target: T2, endogenous IRF3 (BMDMs) (mouse (endogenous in BMDMs)), P70671; experiment: native gel or EMSA; details: remark: other sources report otherwise
T2 chain: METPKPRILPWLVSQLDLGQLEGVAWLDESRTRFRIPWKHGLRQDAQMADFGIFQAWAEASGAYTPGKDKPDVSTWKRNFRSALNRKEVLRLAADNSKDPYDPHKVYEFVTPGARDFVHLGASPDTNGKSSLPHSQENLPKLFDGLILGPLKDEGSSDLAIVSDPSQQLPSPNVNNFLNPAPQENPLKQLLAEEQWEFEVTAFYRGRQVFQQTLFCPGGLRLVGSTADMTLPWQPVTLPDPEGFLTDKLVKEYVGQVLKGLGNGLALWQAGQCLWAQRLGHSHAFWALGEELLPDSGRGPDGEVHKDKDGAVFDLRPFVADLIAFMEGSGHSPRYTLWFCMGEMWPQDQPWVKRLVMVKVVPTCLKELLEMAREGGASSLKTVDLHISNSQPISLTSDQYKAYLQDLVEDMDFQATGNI

[3] = biological target: endogenous IRF3 (BMDMs) (mouse (endogenous in BMDMs)) (UniProt P70671); experiment: native gel or EMSA; native PAGE of extracts of Cyld-/- BMDMs after cGAMP (1 μg per well); IRF3 dimerization

binding [1]: binds
B1: endogenous CYLD (MEFs) (enzyme, UniProt Q80TQ2 1-952)
chain: MSSGLWSQEKVTSPYWEERIFYLLLQECSVTDKQTQKLLKVPKGSIGQYIQDRSVGHSRVPSTKGKKNQIGLKILEQPHAVLFVDEKDVVEINEKFTELLLAITNCEERLSLFRNRLRLSKGLQVDVGSPVKVQLRSGEEKFPGVVRFRGPLLAERTVSGIFFGVELLEEGRGQGFTDGVYQGKQLFQCDEDCGVFVALDKLELIEDDDNGLESDFAGPGDTMQVEPPPLEINSRVSLKVGESTESGTVIFCDVLPGKESLGYFVGVDMDNPIGNWDGRFDGVQLCSFASVESTILLHINDIIPDSVTQERRPPKLAFMSRGVGDKGSSSHNKPKVTGSTSDPGSRNRSELFYTLNGSSVDSQQSKSKNPWYIDEVAEDPAKSLTEMSSDFGHSSPPPQPPSMNSLSSENRFHSLPFSLTKMPNTNGSMAHSPLSLSVQSVMGELNSTPVQESPPLPISSGNAHGLEVGSLAEVKENPPFYGVIRWIGQPPGLSDVLAGLELEDECAGCTDGTFRGTRYFTCALKKALFVKLKSCRPDSRFASLQPVSNQIERCNSLAFGGYLSEVVEENTPPKMEKEGLEIMIGKKKGIQGHYNSCYLDSTLFCLFAFSSALDTVLLRPKEKNDIEYYSETQELLRTEIVNPLRIYGYVCATKIMKLRKILEKVEAASGFTSEEKDPEEFLNILFHDILRVEPLLKIRSAGQKVQDCNFYQIFMEKNEKVGVPTIQQLLEWSFINSNLKFAEAPSCLIIQMPRFGKDFKLFKKIFPSLELNITDLLEDTPRQCRICGGLAMYECRECYDDPDISAGKIKQFCKTCSTQVHLHPRRLNHSYHPVSLPKDLPDWDWRHGCIPCQKMELFAVLCIETSHYVAFVKYGKDDSAWLFFDSMADRDGGQNGFNIPQVTPCPEVGEYLKMSLEDLHSLDSRRIQGCARRLLCDAYMCMYQSPTMSLYK

binding [2]: binds
B2: endogenous IRF3 (BMDMs), P70671 1-419 (protein)
chain: METPKPRILPWLVSQLDLGQLEGVAWLDESRTRFRIPWKHGLRQDAQMADFGIFQAWAEASGAYTPGKDKPDVSTWKRNFRSALNRKEVLRLAADNSKDPYDPHKVYEFVTPGARDFVHLGASPDTNGKSSLPHSQENLPKLFDGLILGPLKDEGSSDLAIVSDPSQQLPSPNVNNFLNPAPQENPLKQLLAEEQWEFEVTAFYRGRQVFQQTLFCPGGLRLVGSTADMTLPWQPVTLPDPEGFLTDKLVKEYVGQVLKGLGNGLALWQAGQCLWAQRLGHSHAFWALGEELLPDSGRGPDGEVHKDKDGAVFDLRPFVADLIAFMEGSGHSPRYTLWFCMGEMWPQDQPWVKRLVMVKVVPTCLKELLEMAREGGASSLKTVDLHISNSQPISLTSDQYKAYLQDLVEDMDFQATGNI

binding [3]: binds weakly
B3: endogenous IRF3 (BMDMs) (protein, UniProt P70671 1-419)
chain: METPKPRILPWLVSQLDLGQLEGVAWLDESRTRFRIPWKHGLRQDAQMADFGIFQAWAEASGAYTPGKDKPDVSTWKRNFRSALNRKEVLRLAADNSKDPYDPHKVYEFVTPGARDFVHLGASPDTNGKSSLPHSQENLPKLFDGLILGPLKDEGSSDLAIVSDPSQQLPSPNVNNFLNPAPQENPLKQLLAEEQWEFEVTAFYRGRQVFQQTLFCPGGLRLVGSTADMTLPWQPVTLPDPEGFLTDKLVKEYVGQVLKGLGNGLALWQAGQCLWAQRLGHSHAFWALGEELLPDSGRGPDGEVHKDKDGAVFDLRPFVADLIAFMEGSGHSPRYTLWFCMGEMWPQDQPWVKRLVMVKVVPTCLKELLEMAREGGASSLKTVDLHISNSQPISLTSDQYKAYLQDLVEDMDFQATGNI
